Laboratory results taken from paper PMC8913663.
These are yes or no findings as the source states them, for the method shown. In cells and extracts the contact can be indirect. Some entries that bind do so weakly or less than the wild type. For part of these data: Tags and fused reporters may be left off the sequences shown. One block for each binder: values may come before it.

Sequences of proteins named here, by UniProt entry; tags and fusion partners are left off.
UniProt P67809: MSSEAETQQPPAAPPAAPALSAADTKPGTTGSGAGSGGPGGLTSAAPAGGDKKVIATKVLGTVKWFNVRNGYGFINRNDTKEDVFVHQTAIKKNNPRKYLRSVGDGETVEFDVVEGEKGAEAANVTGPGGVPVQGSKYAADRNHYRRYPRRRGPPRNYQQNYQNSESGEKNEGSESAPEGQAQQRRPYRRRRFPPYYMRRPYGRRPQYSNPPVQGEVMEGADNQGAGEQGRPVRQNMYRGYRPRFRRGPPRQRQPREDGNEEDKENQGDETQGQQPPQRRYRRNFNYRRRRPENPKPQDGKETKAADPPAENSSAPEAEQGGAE

Key:
[1] = molecular target: YBX-1, transfected (human) (UniProt P67809); experiment: co-IP; lysate of HEK293T cells transfected with expression vectors for GFP-SIAH1, GFP-SIAH1∆N and YBX-1; legend: pulled down by anti-YBX-1, immunoblotted with anti-GFP
[2] = molecular target: YBX-1 (Y box-binding protein), endogenous (human (endogenous in HEK293T)) (UniProt P67809); experiment: co-IP; lysate of HEK293T cells transfected with GFP-tagged SIAH1 or GFP-Vector; 'mutual co-IP'; legend: pulled down by anti-YBX-1, immunoblotted with anti-GFP; magnetic beads, 4 °C overnight
[3] = molecular target: YBX-1 (Y box-binding protein), endogenous (human (endogenous in HEK293T)) (UniProt P67809); experiment: co-IP; lysate of untransfected 293 cells, endogenous proteins; legend: pulled down by anti-YBX-1 and anti-IgG, immunoblotted with anti-SIAH1

binding [1]: binds
binding [2]: binds
B1: GFP-tagged SIAH1 (enzyme, UniProt Q8IUQ4 1-282)
chain: MSRQTATALPTGTSKCPPSQRVPALTGTTASNNDLASLFECPVCFDYVLPPILQCQSGHLVCSNCRPKLTCCPTCRGPLGSIRNLAMEKVANSVLFPCKYASSGCEITLPHTEKADHEELCEFRPYSCPCPGASCKWQGSLDAVMPHLMHQHKSITTLQGEDIVFLATDINLPGAVDWVMMQSCFGFHFMLVLEKQEKYDGHQQFFAIVQLIGTRKQAENFAYRLELNGHRRRLTWEATPRSIHEGIATAIMNSDCLVFDTSIAQLFAENGNLGINVTISMC

binding [3]: binds
B2: SIAH1, endogenous (enzyme, UniProt Q8IUQ4 1-282)
chain: B1 chain
